This assay in a line: qHTS Assay for Lipid Storage Modulators in Drosophila S3 Cells.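 On cell number change: cells counted by Cell Tracker Red CMTPX staining in the red channel.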 The settings on record: BODIPY lipid droplet fluorescence, 18-24 h; for cell number change: measured here: cell count max response, cells fed with added oleic acid. The gist of the method:
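Drosophila S3 cells got compounds at several concentrations plus oleic acid (400 uM solution). Laser-scanning cytometry with 488 nm excitation read lipid droplets at 500-530 nm and cells at 575-640 nm. Percent activity was relative to 20 uM Triacsin C.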
(In general: Quantitative high-throughput screening tests each substance at several concentrations.)

The mark [1] stands for this setting: measured here: cell number channel AC50, cells fed with added oleic acid.
The mark [2] stands for this setting: measured here: lipid fluorescence (Fed channel) AC50, cells fed with added oleic acid.

This is one part of the list. Further columns of the screen follow, without active or inactive calls. Most of these compounds were active or inconclusive in the main read-out, so they are no random draw. Potencies come from curve fits of mixed quality, noted in brackets.

Usually AC50 stands for the concentration at which the activity in the assay is half-maximal. Read a low AC50 as greater potency. As for `Nc1cc(S(=O)(=O)Nc2ccc(Cl)cc2)ccc1N1CCOCC1`, the cell number change is -32.4%. The concentration at half-maximal activity (AC50) under setting [1] is 3.26 µM [falling, partial curve]. Besides, the AC50 under setting [2] is 29.1 µM [falling, single point].
For `COC(=O)c1ccc(NS(=O)(=O)c2cc3c4c(c2)CCN4C(=O)CC3)cc1`, the cell number change turned out to be 9.54%. Further, the AC50 under setting [2] was 0.651 µM [rising, partial curve].
For `CN(C)C=NC(=O)c1cc(C(=O)c2ccc(Cl)cc2Cl)c[nH]1`, the cell number change amounted to 0.615%.
Turning to `Oc1ccccc1-c1nc(N2CCCC2)c2ccccc2n1`, the half-maximal activity concentration (AC50) under setting [1] is 1.46 µM [rising, partial curve] and the concentration at half-maximal activity (AC50) under setting [2] was 1.03 µM [rising, full curve].
Consider `O=C(/C=C/c1ccc(N2CCCCC2)c([N+](=O)[O-])c1)c1ccc(O)cc1`, for which the cell number change was -31.1%. In addition, the AC50 under setting [1] was 4.11 µM [falling, partial curve, poor fit]. Further, under setting [2], the AC50 was 18.4 µM [falling, single point].
Regarding `NC(=O)NOCc1cccc(Cl)c1`, the cell number change stood at 37.7%. In addition, under setting [1], the AC50 was 1.46 µM [rising, partial curve]. Also, the AC50 under setting [2] was 29.1 µM [rising, single point].
`Cn1c(O)c(N=NC(=O)C2COc3ccccc3O2)c2ccccc21` (stereo not drawn): the cell number change is 6.78%. In addition, the AC50 under setting [2] is 29.1 µM [rising, single point].
Regarding `Cc1ccccc1C(=O)Nc1nnc(S(=O)(=O)N(C)Cc2ccco2)s1`, the cell number change is -36.9%. Further, the AC50 under setting [1] is 32.6 µM [falling, single point]. Besides, the AC50 under setting [2] was 0.82 µM [falling, full curve, poor fit].
On to `O=C(O)c1ccc2cccnc2c1O`, for which the cell number change turned out to be 7.13%.
With `NC(=O)c1ccc(NC(=O)COC(=O)c2c3c(nc4ccccc24)/C(=C\c2cccs2)CCC3)cc1`, the cell number change is -73.8%. For the same compound, the concentration at half-maximal activity (AC50) under setting [1] is 2.06 µM [falling, full curve]. Further, under setting [2], the AC50 is 1.3 µM [falling, full curve].
For the compound `O=C(NC1CCCC1)c1cc(-c2ccc(Cl)cc2)on1`, the cell number change is 26.5%. Besides, under setting [2], the AC50 is 6.51 µM [rising, single point].
As to `COc1ccc(CC(C)N2CCN(Cc3ccccc3)CC2)c(OC)c1` (stereo not drawn), the cell number change is -15.2%. In addition, the half-maximal activity concentration (AC50) under setting [1] was 0.326 µM [falling, partial curve]. The AC50 under setting [2] is 0.731 µM [falling, full curve].
Consider `CCn1cnc2c(Nc3cccc(Cl)c3)nc(C#N)nc21`, for which the cell number change is -24.9%.
For `COc1ccc(OC(=O)Cc2cccc3ccccc23)cc1`, the cell number change is -7.69%. The AC50 under setting [2] was 16.4 µM [rising, partial curve].
In the case of `O=C(N/N=C/c1ccc([N+](=O)[O-])o1)C1CCCC1`, the cell number change is -26.1%. Also, the AC50 under setting [2] is 29.1 µM [falling, single point].
For the compound `COC(=O)C(C#N)C(c1cccnc1)c1c(C)[nH][nH]c1=O` (stereo not drawn), the cell number change is 6.42%. The AC50 under setting [2] is 3.66 µM [falling, single point].
Regarding `COC(=O)c1c(N=CN(C)C)c(C#N)c2n1CCCC2`, the cell number change turned out to be 0.834%.
Consider `O=C(NN1C(=O)/C(=C/C=C/c2ccco2)SC1=S)c1ccccc1O`, for which the cell number change was -7.87%. Also, the AC50 under setting [2] is 29.1 µM [falling, single point].
Take `O=C(CSc1nc(O)c(Cc2ccccc2)c(=O)[nH]1)Nc1ccccc1`: the cell number change is -30.8%. Moreover, the AC50 under setting [1] is 5.17 µM [falling, full curve, poor fit]. Moreover, the concentration at half-maximal activity (AC50) under setting [2] is 0.82 µM [falling, full curve].
As for `O=C(CSc1nnc(-c2ccc(Br)cc2)o1)Nc1cccc(C(=O)O)c1`, the cell number change is 5.41%. Also, the AC50 under setting [2] is 6.51 µM [falling, single point].
In the case of `O=C(c1cccc(S(=O)(=O)N2CCOCC2)c1)N1CCCc2ccccc21`, the AC50 by setting is: under setting [1], 0.206 µM [falling, full curve, poor fit]; under setting [2], 0.146 µM [falling, full curve, poor fit].
For the compound `COCCn1c(C)cc(C(=O)CN2C(=O)NC3(CCCCCC3)C2=O)c1C`, the cell number change was 0.721%. In addition, the concentration at half-maximal activity (AC50) under setting [2] was 6.51 µM [rising, single point].
Regarding `CCN1CCN(C(=O)c2cc(S(=O)(=O)Nc3ccc(S(C)(=O)=O)cc3)ccc2Cl)CC1`, the cell number change was -108%.
As to `Cc1noc(C)c1CSCC(=O)OCc1nc2ccccc2c(=O)n1CC#N`, the cell number change was -8.2%. In addition, the AC50 under setting [2] was 18.4 µM [rising, single point].
With `CC1CCc2c(C(=O)Nc3ccc(OC(F)(F)F)cc3)csc2C1` (stereo not drawn), the cell number change came out at 5.71%. Under setting [2], the concentration at half-maximal activity (AC50) is 3.66 µM [rising, single point].
As to `CCCCN(CC)Cc1ccc(CNC(=S)Nc2c(C)cc(C)cc2C)o1`, the cell number change was -3.29%. Moreover, the concentration at half-maximal activity (AC50) under setting [2] was 3.66 µM [falling, single point].
`O=C(O)C1CC=CCC1C(=O)NC12CC3CC(CC(C3)C1)C2` (stereo not drawn): the cell number change was -12.8%. Also, under setting [2], the concentration at half-maximal activity (AC50) is 29.1 µM [falling, partial curve, poor fit].
`N/C(=N\OS(=O)(=O)c1ccc2ccccc2c1)c1ccccn1`: the concentration at half-maximal activity (AC50) under setting [1] is 0.116 µM [falling, full curve, poor fit].
Turning to `CCN(C(=O)CSc1ncccc1C(=O)Oc1cccc([N+](=O)[O-])c1)c1cccc(C)c1`, the cell number change was -9.22%.
For `COc1ccc(CCNC(=O)c2cc(S(=O)(=O)N3CCCCCC3)ccc2OC)cc1OC`, the cell number change is -21.4%. The AC50 under setting [2] is 29.1 µM [falling, single point].
As for `Cc1cc(=O)[nH]c(SC/C=C/c2ccccc2)n1`, the AC50 is 2.91 µM [falling, partial curve, poor fit] under setting [1] and 4.61 µM [falling, partial curve] under setting [2].
As for `COc1cc(OC)nc(Oc2ccc(NC(C)=O)cc2)n1`, the cell number change came to 10.6%. In addition, the AC50 under setting [2] is 1.46 µM [rising, partial curve, poor fit].
As for `COc1ccc2cc(C(=O)N3CCN(Cc4ccc5c(c4)OCO5)CC3)[nH]c2c1`, the cell number change is -4.53%. Also, the half-maximal activity concentration (AC50) under setting [2] was 29.1 µM [rising, single point].
As for `CC(=O)N1CCN(CC(=O)Nc2c(Cl)ccc(C)c2Cl)CC1`, the cell number change is -6.17%.
Still for that read-out and setting: the value for `O=C(c1ccc(S(=O)(=O)N2CCCC2)cc1)N1CCN(S(=O)(=O)c2cccc(F)c2)CC1` was 8.33%.
Turning to `COc1ccc(CN2CCC(n3nccc3NC(=O)c3ccc4c(c3)OCO4)CC2)cc1C`, the cell number change is -9.73%. Moreover, under setting [2], the half-maximal activity concentration (AC50) was 6.51 µM [rising, single point].
For the compound `COC(=O)c1oc2ccccc2c1NC(=O)/C=C/C(=O)O`, the cell number change amounted to 11.4%. Besides, under setting [1], the AC50 is 0.651 µM [falling, single point].
In the case of `CCCCC1CCC(C(=O)N(CC(C)C)c2c(N)n(CCCC)c(=O)[nH]c2=O)CC1` (stereo not drawn), the cell number change is 7.92%. For the same compound, under setting [1], the AC50 was 0.651 µM [falling, single point].
As to `O=C(c1ccccc1Br)N1CCN(c2ncccn2)CC1`, the cell number change came out at 44%. The AC50 under setting [1] was 29.1 µM [rising, single point]. Also, under setting [2], the AC50 is 6.51 µM [rising, partial curve, poor fit].
With `O=C(CN(C(=O)CCC(=O)Nc1nccs1)c1ccc(F)c(Cl)c1)NCc1ccco1`, the cell number change turned out to be 41.9%. For the same compound, the half-maximal activity concentration (AC50) under setting [1] was 1.64 µM [rising, partial curve]. Moreover, the concentration at half-maximal activity (AC50) under setting [2] was 20.6 µM [falling, single point].
With `COc1cccc(CN2CCCC(C(=O)Nc3ccc(-c4cscn4)cc3)C2)c1` (stereo not drawn), the cell number change is 19.4%. Also, under setting [2], the AC50 was 1.84 µM [rising, partial curve].
Turning to `C=CCCCCCCCCC(=O)Nc1ncccn1`, the cell number change is -23.5%. Moreover, the AC50 under setting [2] is 36.6 µM [falling, partial curve, poor fit].
As to `CCC1(C)Cc2ccccc2C(=S)N1` (stereo not drawn), the half-maximal activity concentration (AC50) is 2.31 µM [falling, partial curve] under setting [1] and 5.17 µM [falling, single point] under setting [2].
As to `Cc1ccc(CC(=O)N2CCN(C(=O)c3ccco3)CC2)cc1`, the cell number change is 18.4%. For the same compound, the half-maximal activity concentration (AC50) under setting [2] is 29.1 µM [rising, single point].
For `CC(C(=O)N(C)CC(=O)Nc1ccccc1C(F)(F)F)N1C(=O)c2ccccc2C1=O` (stereo not drawn), the cell number change is -3.03%. Under setting [2], the AC50 is 11.6 µM [rising, partial curve].
As for `CC(CCN1CCN(c2ccccn2)CC1)c1ccccc1` (stereo not drawn), the cell number change amounted to 7.94%. In addition, under setting [2], the AC50 was 0.092 µM [rising, full curve, poor fit].
`COc1cccc(CN2CCCC(CNC(=O)c3ccc(F)cc3)C2)c1OC` (stereo not drawn): the cell number change stood at 12.1%.
In the case of `c1cncc(-c2nnc(-c3cccs3)o2)c1`, the cell number change was -12.5%. The AC50 under setting [1] is 0.58 µM [rising, full curve].
Consider `COc1cc(C(c2c(C)[nH][nH]c2=O)c2c(C)[nH][nH]c2=O)cc(Cl)c1O`, for which the cell number change was -19.1%. Besides, under setting [2], the half-maximal activity concentration (AC50) was 29.1 µM [falling, single point].
With `COc1nc(C)nc2c1sc1nc3c(cc12)COC(C)(C)C3`, the half-maximal activity concentration (AC50) is 6.51 µM [rising, single point] under setting [1] and 29.1 µM [falling, single point] under setting [2].
Turning to `Cc1cnc(CN(C)C(=O)c2ccc3oc(Cc4ccc(Cl)cc4)nc3c2)[nH]1`, the cell number change stood at 9.79%. Moreover, under setting [2], the half-maximal activity concentration (AC50) was 16.4 µM [rising, partial curve].
For `Cc1ccc(N2C(=O)CSC2c2c(F)cccc2Cl)cc1` (stereo not drawn), the cell number change was -6.52%. Besides, under setting [2], the concentration at half-maximal activity (AC50) was 0.461 µM [rising, single point].
Regarding `COc1ccc(-c2cc(=O)oc3c(C)c(OC(=O)c4cccs4)ccc23)cc1`, the cell number change was -78.4%. Under setting [1], the AC50 was 1.3 µM [falling, full curve]. For the same compound, the AC50 under setting [2] was 1.16 µM [falling, full curve].
For the compound `O=S(=O)(Nc1cccc(-c2cn3cccnc3n2)c1)c1ccccc1`, the AC50 under setting [2] was 0.0058 µM [rising, full curve].
For the compound `O=C(Nc1ccncc1)c1ccc(F)cc1`, the cell number change was 17.9%.
Still for that read-out and setting: with `CN(C)C(=O)C1(c2ccccc2)CCN(S(=O)(=O)c2ccccc2)CC1` the figure was -12.4%.
With `O=C(CSc1nnc(-c2cccs2)n1-c1ccccc1)N1CCOCC1`, the cell number change was determined as 1.75%. For the same compound, under setting [2], the AC50 was 0.731 µM [falling, single point].
Turning to `CC(=O)N1C(=O)c2cccc3cccc(c23)C(=O)N1C(C)=O`, the cell number change was -125%. For the same compound, the AC50 under setting [1] is 23.1 µM [falling, partial curve]. Besides, the AC50 under setting [2] was 0.731 µM [falling, full curve].
As for `Cc1cccc(OCc2n[nH]c(=S)o2)c1C`, the cell number change stood at 30.3%. Also, the AC50 under setting [1] is 32.6 µM [rising, single point].
For the compound `NS(=O)(=O)c1ccc(CCNC(=O)Cn2c(=O)c3cccn3c3cccnc32)cc1`, the cell number change turned out to be 18.3%. Also, under setting [2], the AC50 is 0.58 µM [falling, single point].

Values taken from PubChem BioAssay AID2685 (National Center for Advancing Translational Sciences (NCATS), 2010).
